Measured values taken from US7323260B2, “Lubricant, recording medium and carboxylic acid compound” (Sony Corporation, priority 2003, dated 2008).

How the values were obtained:
[1] = Friction coefficient of sample tape coated with the lubricant, after 1000 runs; details: 1 mg/m^2 on carbon film layer
[2] = Shuttle durability of sample tape: playback output change after 100 runs on AIT2 deck; details: difference between initial output and playback output after 100 runs; for Shuttle durability (dB) (−5° C.): 20% RH
[3] = Corrosion resistance: magnetic deterioration rate after storage in high-temperature, high-humidity environment; details: one week at 60° C. and 80% RH
[4] = Corrosion resistance: magnetic deterioration rate after storage in corrosive gas environment; details: 5 hours, 35° C., 70% RH, 2 ppm H2S and 1 ppm HCl

| Compound | Friction coefficient (40° C., 80% RH) [1] | Shuttle durability (dB) (40° C., 20% RH) [2] | Shuttle durability (dB) (−5° C.) [2] | High-temperature, high-humidity environment (magnetic deterioration rate) ([3]; Tables 8 and 9) | Corrosive gas environment (magnetic deterioration rate) ([4]; Tables 8 and 9) | High-temperature, high-humidity environment (magnetic deterioration rate) ([3]; Tables 17 and 18) | Corrosive gas environment (magnetic deterioration rate) ([4]; Tables 17 and 18) |
| --- | --- | --- | --- | --- | --- | --- | --- |
| O=C(O)CC(OC(=O)CCCCCCCCCCC(F)(F)C(F)(F)C(F)(F)C(F)(F)C(F)(F)C(F)(F)C(F)(F)C(F)(F)F)C(=O)O (stereo not drawn) [Example 1, CF3(CF2)7(CH2)10COOCH(COOH)CH2COOH] | 0.20 | −0.8 | −0.3 | ⊙ (magnetic deterioration rate is 1% or less) | ⊙ (magnetic deterioration rate is 1% or less) | – | – |
| CCCCCCCCCCCCCCCCCC(=O)OC(CC(=O)O)C(=O)O (stereo not drawn) [Example 3, C17H35COOCH(COOH)CH2COOH] | 0.25 | −1.0 | −0.5 | ⊙ (magnetic deterioration rate is 1% or less) | ⊙ (magnetic deterioration rate is 1% or less) | – | – |
| CCCCCCCCCC(CCCCCCC)C(CC(=O)OCCC(F)(F)C(F)(F)C(F)(F)C(F)(F)C(F)(F)C(F)(F)C(F)(F)C(F)(F)F)C(=O)OC(CC(=O)O)C(=O)O (stereo not drawn) [Example 36, CF3(CF2)7(CH2)2OCOCH2CH(CH(C7H15)(C9H19)COOCH(COOH)CH2COOH] | 0.23 | −1.0 | −1.0 | – | – | ◯ (magnetic deterioration rate is 3% or less) | ⊙ (magnetic deterioration rate is 1% or less) |
| O=C(O)CC(OC(=O)CCCCCCCC(F)(F)C(F)(F)C(F)(F)C(F)(F)F)C(=O)O (stereo not drawn) [Example 14, CF3(CF2)3(CH2)7COOCH(COOH)CH2COOH] | 0.24 | −1.0 | −1.2 | ⊙ (magnetic deterioration rate is 1% or less) | ◯ (magnetic deterioration rate is 3% or less) | – | – |
| O=C(O)CC(OC(=O)CCCCCCCCCCC(F)(F)C(F)(F)C(F)(F)C(F)(F)C(F)(F)C(F)(F)F)C(=O)O (stereo not drawn) [Example 17, CF3(CF2)5(CH2)10COOCH(COOH)CH2COOH] | 0.23 | −1.0 | −0.8 | ⊙ (magnetic deterioration rate is 1% or less) | ◯ (magnetic deterioration rate is 3% or less) | – | – |
| O=C(O)CCCC(=O)OCCC(F)(F)C(F)(F)C(F)(F)C(F)(F)C(F)(F)C(F)(F)C(F)(F)C(F)(F)F [Comparative Example 6, CF3(CF2)7(CH2)2OCO(CH2)3COOH, reference compound] | 0.55 | −3.5 | −3.5 | – | Δ (magnetic deterioration rate is 5% or less) | – | – |
| O=C(O)CC(CC(=O)OCCCCCCCCCCCCCC(F)(F)C(F)(F)C(F)(F)C(F)(F)C(F)(F)C(F)(F)C(F)(F)C(F)(F)F)C(=O)O (stereo not drawn) [Example 24, CF3(CF2)7(CH2)13OCOCH2CH(COOH)CH2COOH] | 0.20 | −0.8 | −0.5 | – | – | ⊙ (magnetic deterioration rate is 1% or less) | ⊙ (magnetic deterioration rate is 1% or less) |
| CCCCCCC(CCCCCCCC(=O)OC(CC(=O)O)C(=O)O)C(F)(F)C(F)(F)C(F)(F)C(F)(F)C(F)(F)C(F)(F)C(F)(F)C(F)(F)F (stereo not drawn) [Example 19, CF3(CF2)7CH(C6H13)(CH2)7COOCH(COOH)CH2COOH] | 0.24 | −1.5 | −1.0 | ◯ (magnetic deterioration rate is 3% or less) | ⊙ (magnetic deterioration rate is 1% or less) | – | – |
| O=C(O)CC(CC(=O)OCCCCCCC(F)(F)C(F)(F)C(F)(F)C(F)(F)F)C(=O)O (stereo not drawn) [Example 10, CF3(CF2)3(CH2)6OCOCH2CH(COOH)CH2COOH] | 0.23 | −1.5 | −1.0 | ⊙ (magnetic deterioration rate is 1% or less) | ⊙ (magnetic deterioration rate is 1% or less) | – | – |
| O=C(O)CC(OC(=O)CCCCC(F)(F)C(F)(F)C(F)(F)C(F)(F)F)C(=O)O (stereo not drawn) [Example 13, CF3(CF2)3(CH2)4COOCH(COOH)CH2COOH] | 0.27 | −1.3 | −1.0 | ◯ (magnetic deterioration rate is 3% or less) | ◯ (magnetic deterioration rate is 3% or less) | – | – |
| O=C(O)CC(OC(=O)CCCCC(F)(F)C(F)(F)C(F)(F)C(F)(F)C(F)(F)C(F)(F)C(F)(F)C(F)(F)F)C(=O)O (stereo not drawn) [Example 12, CF3(CF2)7(CH2)4COOCH(COOH)CH2COOH] | 0.26 | −1.0 | −1.0 | ⊙ (magnetic deterioration rate is 1% or less) | ⊙ (magnetic deterioration rate is 1% or less) | – | – |
| CCCCCCC(CCC(CCCCCCCCOC(=O)CC(CC(=O)O)C(=O)O)CCC(F)(F)C(F)(F)C(F)(F)C(F)(F)C(F)(F)C(F)(F)C(F)(F)C(F)(F)C(F)(F)C(F)(F)F)CCC(F)(F)C(F)(F)C(F)(F)C(F)(F)C(F)(F)C(F)(F)C(F)(F)C(F)(F)C(F)(F)C(F)(F)F (stereo not drawn) [Example 27, CH3(CH2)3(CH2CH2CH(CH2CH2(CF2)9CF3))2(CH2)8OCOCH2CH(COOH)CH2COOH] | 0.23 | −1.0 | −0.5 | – | – | ◯ (magnetic deterioration rate is 3% or less) | ⊙ (magnetic deterioration rate is 1% or less) |
| C11H23COORfeOCOC11H23 [Comparative Example 5, reference compound] | 0.50 | −3.0 | −4.0 | – | – | – | – |
| O=C(O)CC(CC(=O)OCCC(F)(F)C(F)(F)C(F)(F)C(F)(F)C(F)(F)C(F)(F)C(F)(F)C(F)(F)F)C(=O)O (stereo not drawn) [Example 7, CF3(CF2)7(CH2)2OCOCH2CH(COOH)CH2COOH] | 0.25 | −1.5 | −1.3 | ⊙ (magnetic deterioration rate is 1% or less) | ⊙ (magnetic deterioration rate is 1% or less) | – | – |
| CCCCCCCCCCCCC(CC(=O)OCCC(F)(F)C(F)(F)C(F)(F)C(F)(F)C(F)(F)C(F)(F)C(F)(F)C(F)(F)F)C(=O)OC(CC(=O)O)C(=O)O (stereo not drawn) [Example 29, CF3(CF2)7(CH2)2OCOCH2CH(C12H25)COOCH(COOH)CH2COOH] | 0.25 | −1.0 | −0.8 | – | – | ⊙ (magnetic deterioration rate is 1% or less) | ⊙ (magnetic deterioration rate is 1% or less) |
| CCCCCCCCCCCCCCCCCCC(CC(=O)OCCCCCCC(F)(F)C(F)(F)C(F)(F)C(F)(F)C(F)(F)C(F)(F)C(F)(F)C(F)(F)F)C(=O)OC(CC(=O)O)C(=O)O (stereo not drawn) [Example 33, CF3(CF2)7(CH2)6OCOCH2CH(C18H37)COOCH(COOH)CH2COOH] | 0.22 | −1.0 | −0.5 | – | – | ⊙ (magnetic deterioration rate is 1% or less) | ⊙ (magnetic deterioration rate is 1% or less) |
| O=C(O)CC(OC(=O)C(F)(F)C(F)(F)C(F)(F)C(F)(F)C(F)(F)C(F)(F)C(F)(F)C(F)F)C(=O)O (stereo not drawn) [Example 6, CHF2(CF2)7COOCH(COOH)CH2COOH] | 0.25 | −1.5 | −1.0 | ⊙ (magnetic deterioration rate is 1% or less) | ⊙ (magnetic deterioration rate is 1% or less) | – | – |
| CCCCCCCCCCCCCCCCCCC(CC(=O)OCC(F)(OC(F)(C(F)(F)F)C(F)(F)OC(F)(C(F)(F)F)C(F)(F)OC(F)(C(F)(F)F)C(F)(F)F)C(F)(F)F)C(=O)O (stereo not drawn) [Comparative Example 4, C18H37CH(COOH)CH2COOCH2CF(CF3)(OCF(CF3)CF2)3F, reference compound] | 0.35 | −4.0 | −3.0 | – | Δ (magnetic deterioration rate is 5% or less) | – | – |
| C18H37CH(COOC12H25)(CH2)2COOCH2CF2(OCF2)p(OCF(CF3)CF2)qOCF3 [Comparative Example 3, reference compound] | 0.30 | −3.0 | −3.0 | – | – | – | – |
| COC(=O)CCCCCCCCCCC(F)(F)C(F)(F)C(F)(F)C(F)(F)C(F)(F)C(F)(F)C(F)(F)C(F)(F)F [Comparative Example 2, CF3(CF2)7(CH2)10COOCH3, reference compound] | 0.50 | −4.0 | −5.0 | – | – | – | – |
| CCCCCCCCCCCCCCCCCCN [Comparative Example 1, C18H37NH2, reference compound] | 0.30 | −7.0 | −9.0 | – | Δ (magnetic deterioration rate is 5% or less) | – | – |
